One substance from US20240299362A1, “EXOSOME PACKAGING AND TARGETED AUTOPHAGY” (University of Ottawa, priority 2017, published 2024) can be followed below.

By UniProt entry, the sequences of proteins in these tests, tags left out. Residues count along the entry.
UniProt P63082: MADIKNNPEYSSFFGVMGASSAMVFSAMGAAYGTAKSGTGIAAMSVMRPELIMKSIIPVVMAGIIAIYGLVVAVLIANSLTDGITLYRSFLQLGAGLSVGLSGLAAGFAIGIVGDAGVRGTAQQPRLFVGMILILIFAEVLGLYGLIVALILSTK
UniProt P50518, residues 2-226: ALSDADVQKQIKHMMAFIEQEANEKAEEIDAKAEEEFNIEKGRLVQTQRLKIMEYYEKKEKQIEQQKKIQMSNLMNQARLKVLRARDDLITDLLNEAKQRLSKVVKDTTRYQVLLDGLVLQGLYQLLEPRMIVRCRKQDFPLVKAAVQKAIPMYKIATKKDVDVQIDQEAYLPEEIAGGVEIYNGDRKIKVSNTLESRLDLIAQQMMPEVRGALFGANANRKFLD

These are yes or no findings as the source states them, for the method shown. Binding seen in cells or lysates may run through a third protein. Some binding calls cover weakened binding; strength is not graded here.

The target in test [1] is ATP6V0C (mouse (MEF)) (UniProt P63082). The test is described as follows: proximity ligation assay in fixed cells (FIG. 3C).
Test [2] shares this target. The test is described as follows: proximity ligation assay for ATP6V1E1 and ATP6V0C in fixed cells.

As for ATP6V1E1 (from UniProt P50518 2-226), the binding result in the test with ATP6V0C (mouse (MEF)) [1] and with ATP6V0C (mouse (MEF)) [2] was “binds” in each case.
